Data reported in patent publication EP4803139A2.

Molecular target: human PCSK9 (proprotein convertase subtilisin/kexin type 9), wild type (human)
Assay: BIAcore solution equilibrium assay, 21B12 immobilised on CM5

B1: 21B12, anti-PCSK9 huIgG4 (antibody, V domains shown)
VH: QVQLVQSGAEVKKPGASVKVSCKASGYTLTSYGISWVRQAPGQGLEWMGWVSFYNGNTNYAQKLQGRGTMTTDPSTSTAYMELRSLRSDDTAVYYCARGYGMDVWGQGTTVTVSS
VL: QSALTQPASVSGSPGQSITISCTGTSSDVGGYNSVSWYQQHPGKAPKLMIYEVSNRPSGVSNRFSGSKSGNTASLTISGLQAEDEADYYCNSYTSTSMVFGGGTKLTVLQ
binding: binds

Results are given in words; binding and its absence hold for the method and conditions named. A result given as binding can be weak or reduced; the word gives no strength.
